Data: article PMC5003356
pKd: −log10 of the molar value. For at least one entry, the source does not settle the construct or the ends of the probe. Where cells or extracts were used, other partners may take part. For some of these results: Where a protein sequence is shown, tags need not be part of it.

Assays:
Experiment in all cases: BRET
NLuc-RPL5 = NLuc-RPL5 (UniProt P47962); settings: PS, BRET: 1X binding buffer (0.1 M potassium acetate, 20 mM Tris pH 7.5, 1 mM EDTA, 0.01% NP-40), room temperature, 15 min, protein in a lysate after overexpression, protein details: N-terminal NLuc, label: 3' Alexa Fluor 594, synthetic backbone
RNase H1 NLuc fusion = target: T1, RNase H1 NLuc fusion (UniProt O60930); settings: PS, BRET: 1X binding buffer (0.1 M potassium acetate, 20 mM Tris pH 7.5, 1 mM EDTA, 0.01% NP-40), room temperature, 15 min, protein in a lysate after overexpression, protein details: NLuc (N or C), label: 3' Alexa Fluor 594, synthetic backbone
T1 sequence (looked up, limits assumed): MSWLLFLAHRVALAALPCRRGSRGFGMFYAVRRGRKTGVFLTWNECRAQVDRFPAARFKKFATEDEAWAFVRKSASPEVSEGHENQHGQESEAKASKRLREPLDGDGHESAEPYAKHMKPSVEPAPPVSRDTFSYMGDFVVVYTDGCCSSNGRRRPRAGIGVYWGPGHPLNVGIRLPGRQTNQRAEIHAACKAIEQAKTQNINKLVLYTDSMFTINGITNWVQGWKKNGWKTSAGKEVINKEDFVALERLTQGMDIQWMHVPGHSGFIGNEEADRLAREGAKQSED

La NLuc fusion = La NLuc fusion (UniProt P05455); settings: PS, BRET: 1X binding buffer (0.1 M potassium acetate, 20 mM Tris pH 7.5, 1 mM EDTA, 0.01% NP-40), room temperature, 15 min, protein in a lysate after overexpression, protein details: NLuc (N or C), label: 3' Alexa Fluor 594, synthetic backbone
NLuc-TCP1-beta = target: T2, NLuc-TCP1-beta (UniProt P80314); settings: PS, BRET: 1X binding buffer (0.1 M potassium acetate, 20 mM Tris pH 7.5, 1 mM EDTA, 0.01% NP-40), room temperature, 15 min, protein in a lysate after overexpression, protein details: N-terminal NLuc, label: 3' Alexa Fluor 594, synthetic backbone
T2 sequence (looked up, limits assumed): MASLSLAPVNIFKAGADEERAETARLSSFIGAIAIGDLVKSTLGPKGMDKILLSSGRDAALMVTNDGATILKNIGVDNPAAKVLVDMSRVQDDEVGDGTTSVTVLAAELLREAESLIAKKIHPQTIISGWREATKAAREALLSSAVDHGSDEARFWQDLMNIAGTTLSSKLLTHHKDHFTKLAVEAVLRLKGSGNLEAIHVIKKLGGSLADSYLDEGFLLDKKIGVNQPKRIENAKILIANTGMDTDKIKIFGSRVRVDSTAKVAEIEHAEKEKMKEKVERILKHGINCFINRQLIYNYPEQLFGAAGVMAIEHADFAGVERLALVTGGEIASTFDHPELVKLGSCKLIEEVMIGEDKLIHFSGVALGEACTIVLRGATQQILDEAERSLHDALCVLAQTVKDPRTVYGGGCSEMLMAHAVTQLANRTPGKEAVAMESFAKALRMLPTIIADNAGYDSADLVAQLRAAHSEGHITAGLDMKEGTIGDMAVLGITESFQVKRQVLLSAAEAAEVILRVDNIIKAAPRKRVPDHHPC

SFPQ-NLuc = SFPQ-NLuc (UniProt P23246); settings: PS, BRET: 1X binding buffer (0.1 M potassium acetate, 20 mM Tris pH 7.5, 1 mM EDTA, 0.01% NP-40), room temperature, 15 min, protein in a lysate after overexpression, protein details: C-terminal NLuc, label: 3' Alexa Fluor 594, synthetic backbone
Staufen1 NLuc fusion = target: T3, Staufen1 NLuc fusion (UniProt O95793); settings: PS; 5-10-5 (S)-cEt gap-mer; BRET: 1X binding buffer (0.1 M potassium acetate, 20 mM Tris pH 7.5, 1 mM EDTA, 0.01% NP-40), room temperature, 15 min; protein in a lysate after overexpression; label: 3' Alexa Fluor 594; synthetic backbone
T3 sequence (looked up, limits assumed): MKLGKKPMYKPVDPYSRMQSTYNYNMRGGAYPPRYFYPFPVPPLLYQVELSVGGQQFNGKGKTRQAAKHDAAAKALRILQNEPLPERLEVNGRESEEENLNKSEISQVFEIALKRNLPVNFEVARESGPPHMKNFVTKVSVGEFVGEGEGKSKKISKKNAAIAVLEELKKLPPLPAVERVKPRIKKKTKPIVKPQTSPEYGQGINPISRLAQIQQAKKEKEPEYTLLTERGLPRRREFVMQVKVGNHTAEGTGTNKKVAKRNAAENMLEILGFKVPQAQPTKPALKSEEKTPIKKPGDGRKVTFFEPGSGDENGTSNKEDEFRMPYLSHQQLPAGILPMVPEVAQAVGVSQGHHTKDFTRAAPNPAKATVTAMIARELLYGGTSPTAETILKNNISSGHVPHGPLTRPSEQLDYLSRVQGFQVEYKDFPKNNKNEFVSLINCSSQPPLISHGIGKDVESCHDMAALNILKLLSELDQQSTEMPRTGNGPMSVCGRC

NLuc-PC4 = NLuc-PC4 (UniProt P53999); settings: PS, BRET: 1X binding buffer (0.1 M potassium acetate, 20 mM Tris pH 7.5, 1 mM EDTA, 0.01% NP-40), room temperature, 15 min, protein in a lysate after overexpression, protein details: N-terminal NLuc, label: 3' Alexa Fluor 594, synthetic backbone
NLuc-RPL11 = NLuc-RPL11 (UniProt P62913); settings: PS, BRET: 1X binding buffer (0.1 M potassium acetate, 20 mM Tris pH 7.5, 1 mM EDTA, 0.01% NP-40), room temperature, 15 min, protein in a lysate after overexpression, protein details: N-terminal NLuc, label: 3' Alexa Fluor 594, synthetic backbone
Ku70-NLuc = Ku70-NLuc (UniProt P12956); settings: PS, BRET: 1X binding buffer (0.1 M potassium acetate, 20 mM Tris pH 7.5, 1 mM EDTA, 0.01% NP-40), room temperature, 15 min, protein in a lysate after overexpression, protein details: C-terminal NLuc, label: 3' Alexa Fluor 594, synthetic backbone
LRPPRC-NLuc = LRPPRC-NLuc (UniProt P42704); settings: PS, BRET: 1X binding buffer (0.1 M potassium acetate, 20 mM Tris pH 7.5, 1 mM EDTA, 0.01% NP-40), room temperature, 15 min, protein in a lysate after overexpression, protein details: C-terminal NLuc, label: 3' Alexa Fluor 594, synthetic backbone
FUS-NLuc = target: T4, FUS-NLuc (UniProt P56959); settings: PS, BRET: 1X binding buffer (0.1 M potassium acetate, 20 mM Tris pH 7.5, 1 mM EDTA, 0.01% NP-40), room temperature, 15 min, protein in a lysate after overexpression, protein details: C-terminal NLuc, label: 3' Alexa Fluor 594, synthetic backbone
T4 sequence (looked up, limits assumed): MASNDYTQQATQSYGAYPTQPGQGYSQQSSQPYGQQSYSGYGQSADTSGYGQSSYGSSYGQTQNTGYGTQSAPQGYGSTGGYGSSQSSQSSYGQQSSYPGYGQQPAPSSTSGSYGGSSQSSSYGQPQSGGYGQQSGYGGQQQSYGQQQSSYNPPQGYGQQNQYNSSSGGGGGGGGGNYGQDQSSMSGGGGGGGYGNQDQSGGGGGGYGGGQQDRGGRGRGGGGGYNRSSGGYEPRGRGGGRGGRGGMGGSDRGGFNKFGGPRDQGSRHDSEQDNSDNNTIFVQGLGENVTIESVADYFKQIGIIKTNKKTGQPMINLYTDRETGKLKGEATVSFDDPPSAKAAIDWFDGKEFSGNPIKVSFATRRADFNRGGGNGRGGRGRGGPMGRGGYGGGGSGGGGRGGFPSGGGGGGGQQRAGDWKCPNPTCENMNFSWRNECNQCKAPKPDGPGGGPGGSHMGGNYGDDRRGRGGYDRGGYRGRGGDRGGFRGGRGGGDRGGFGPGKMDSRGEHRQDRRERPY

[1] = target: NCL (RBD 1-4) NLuc fusion (UniProt P09405); settings: PS, BRET: 1X binding buffer (0.1 M potassium acetate, 20 mM Tris pH 7.5, 1 mM EDTA, 0.01% NP-40), room temperature, 15 min, protein in a lysate after overexpression, protein details: NLuc (N or C), label: 3' Alexa Fluor 594, synthetic backbone
NMP1 (NPM1) NLuc fusion = NMP1 (NPM1) NLuc fusion (UniProt P06748); settings: PS, BRET: 1X binding buffer (0.1 M potassium acetate, 20 mM Tris pH 7.5, 1 mM EDTA, 0.01% NP-40), room temperature, 15 min, protein in a lysate after overexpression, protein details: NLuc (N or C), label: 3' Alexa Fluor 594, synthetic backbone
ANXA2-NLuc = ANXA2-NLuc (UniProt P07356); settings: PS, BRET: 1X binding buffer (0.1 M potassium acetate, 20 mM Tris pH 7.5, 1 mM EDTA, 0.01% NP-40), room temperature, 15 min, protein in a lysate after overexpression, protein details: C-terminal NLuc, label: 3' Alexa Fluor 594, synthetic backbone
HSP90 (mid)-NLuc = HSP90 (mid)-NLuc (UniProt P07900); settings: PS, BRET: 1X binding buffer (0.1 M potassium acetate, 20 mM Tris pH 7.5, 1 mM EDTA, 0.01% NP-40), room temperature, 15 min, protein in a lysate after overexpression, protein details: C-terminal NLuc, label: 3' Alexa Fluor 594, synthetic backbone
[2] = target: P54nrb NLuc fusion (Homo sapiens) (UniProt Q15233); settings: PS, BRET: 1X binding buffer (0.1 M potassium acetate, 20 mM Tris pH 7.5, 1 mM EDTA, 0.01% NP-40), room temperature, 15 min, protein in a lysate after overexpression, protein details: NLuc (N or C), label: 3' Alexa Fluor 594, synthetic backbone

For “CTGCTAGCCTCTGGATTTGA [766636 cEt gap-mer]”, the pKd (NLuc-RPL5; 5-10-5 (S)-cEt gap-mer) was 8.89, the pKd (RNase H1 NLuc fusion; 5-10-5 (S)-cEt gap-mer) was 8.30 and the pKd (La NLuc fusion; 5-10-5 (S)-cEt gap-mer) was 8.30. For the same sequence, the pKd (NLuc-TCP1-beta; 5-10-5 (S)-cEt gap-mer) was 6.95, the pKd (SFPQ-NLuc; 5-10-5 (S)-cEt gap-mer) was 8.57 and the pKd (Staufen1 NLuc fusion) was 7.00. It also gave a pKd (NLuc-PC4; 5-10-5 (S)-cEt gap-mer) of 8.96, a pKd (NLuc-RPL11; 5-10-5 (S)-cEt gap-mer) of 7.76 and a pKd (Ku70-NLuc; 5-10-5 (S)-cEt gap-mer) of 8.40. The pKd (LRPPRC-NLuc; 5-10-5 (S)-cEt gap-mer) was 9.80, the pKd (FUS-NLuc; 5-10-5 (S)-cEt gap-mer) was 9.22 and the pKd ([1]; 5-10-5 (S)-cEt gap-mer) was 8.77. It also gave a pKd (NMP1 (NPM1) NLuc fusion; 5-10-5 (S)-cEt gap-mer) of less than 6.00, a pKd (ANXA2-NLuc; 5-10-5 (S)-cEt gap-mer) of less than 6.00 and a pKd (HSP90 (mid)-NLuc; 5-10-5 (S)-cEt gap-mer) of 7.37. The pKd ([2]; 5-10-5 (S)-cEt gap-mer) was 8.03.

Work on “CTGCTAGCCTCTGGATTTGA [766634 MOE gap-mer]” yielded a pKd (NLuc-RPL5; 5-10-5 2'-MOE gap-mer) of 8.43, a pKd (RNase H1 NLuc fusion; 5-10-5 2'-MOE gap-mer) of 8.70 and a pKd (La NLuc fusion; 5-10-5 2'-MOE gap-mer) of 8.03. It also gave a pKd (NLuc-TCP1-beta; 5-10-5 2'-MOE gap-mer) of 6.40, a pKd (SFPQ-NLuc; 5-10-5 2'-MOE gap-mer) of 8.43 and a pKd (NLuc-PC4; 5-10-5 2'-MOE gap-mer) of 8.21. For the same sequence, the pKd (NLuc-RPL11; 5-10-5 2'-MOE gap-mer) was 7.80, the pKd (Ku70-NLuc; 5-10-5 2'-MOE gap-mer) was 7.82 and the pKd (LRPPRC-NLuc; 5-10-5 2'-MOE gap-mer) was 9.11. The pKd (FUS-NLuc; 5-10-5 2'-MOE gap-mer) was 8.74, the pKd ([1]; 5-10-5 2'-MOE gap-mer) was 11.05 and the pKd (NMP1 (NPM1) NLuc fusion; 5-10-5 2'-MOE gap-mer) was less than 6.00. It also gave a pKd (ANXA2-NLuc; 5-10-5 2'-MOE gap-mer) of less than 6.00, a pKd (HSP90 (mid)-NLuc; 5-10-5 2'-MOE gap-mer) of 6.78 and a pKd ([2]; 5-10-5 2'-MOE gap-mer) of 7.08.
